PubChem BioAssay AID1259308 | NCATS, 2017
Purpose: 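Candidate targets for better recombinant protein yield in mammalian cells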 (primary screen). Cells: human HEK293 embryonic kidney cells stably expressing firefly luciferase (HEK-CMV-Luc2-Hygro). Reagent: single siRNA against human genes, 0.8 pmol siRNA per well. Duration: 72 h. Measured: 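Luciferase light (ONE-Glo) measured on one replicate plate set and viability (CellTiter-Glo) on the other, scaled to a negative control siRNA, with robust z-scores and luciferase per cell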. Direction: total luciferase, z-score and total luciferase, % of control: higher = more reporter protein produced. Rule for the call: 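An siRNA counts as active if its total luciferase robust z-score exceeds 3; genes with two or more such siRNAs out of three were retested with fresh siRNAs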. Calls: active = raised luciferase; inactive = no rise.
In all, the deposit lists about 59,000 reagents; shown is a random part of them. About 1,510 of all reagents (2.6%) count as active. 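Calls use total luciferase alone and ignore viability, so some active siRNAs may act by altering cell number.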 A number with no mark means an inactive call. The numbers tell different reagents against one gene apart. Not all columns of the deposit are shown.

no.	gene knocked down	reagent	total luciferase, z-score	total luciferase, % of control
1	MFN1	1	-0.291	76.1
2	MFN1	2	2.59	133
3	MFN1	3	0.499	91.8
4	ID4	1	0.87	99.2
5	ID4	2	0.791	97.6
6	ID4	3	1.26	107
7	GTSCR1	1	-0.286	76.2
8	GTSCR1	2	0.596	93.7
9	GTSCR1	3	0.000427	81.9
10	MEF2A	1	-1.03	61.5
11	MEF2A	2	0.308	88
12	MEF2A	3	0.118	84.2
13	PIP5K1A	1	2.71	136
14	PIP5K1A	2	0.758	97
15	PIP5K1A	3	2.64	134
16	NTSR2	1	0.874	99.3
17	NTSR2	2	0.838	98.6
18	NTSR2	3	0.142	84.7
19	USP9Y	1	0.566	93.1
20	USP9Y	2	-0.366	74.6
21	USP9Y	3	0.403	89.9
22	LOC100533706	1	-2.55	31.2
23	LOC100533706	2	-2.35	35.1
24	LOC100533706	3	-0.814	65.7
25	POLR2I	1	-3.25	17.3
26	POLR2I	2	-2.85	25.2
27	POLR2I	3	-1.45	53.1
28	GNB2	1	-0.463	72.7
29	GNB2	2	0.272	87.3
30	GNB2	3	-0.606	69.8
31	NLN	1	0.295	87.8
32	NLN	2	0.685	95.5
33	NLN	3	0.181	85.5
34	CCDC73	1	0.32	88.3
35	CCDC73	2	0.106	84
36	CCDC73	3	1.11	104
37	DPY30	1	-0.113	79.6
38	DPY30	2	-0.88	64.4
39	DPY30	3	0.127	84.4
40	RANBP3L	1	-0.783	66.3
41	RANBP3L	2	0.259	87
42	RANBP3L	3	-0.315	75.6
43	CREB3L3	1	1.15	105
44	CREB3L3	2	-0.236	77.2
45	CREB3L3	3	1.89	119
46	MKNK2	1	1.13	104
47	MKNK2	2	3.62 (active)	154
48	MKNK2	3	0.051	82.9
49	LAMB4	1	-0.166	78.6
50	LAMB4	2	0.601	93.8
51	LAMB4	3	2.18	125
52	CACNG2	1	-0.586	70.2
53	CACNG2	2	-0.482	72.3
54	CACNG2	3	-0.534	71.3
55	BDH1	1	1.34	109
56	BDH1	2	-0.454	72.9
57	BDH1	3	0.485	91.5
58	URAD	1	-0.159	78.7
59	URAD	2	0.302	87.9
60	URAD	3	0.5	91.8
61	PIGN	1	-0.784	66.3
62	PIGN	2	2.95	141
63	PIGN	3	0.81	98
64	LRRC31	1	0.205	86
65	LRRC31	2	0.552	92.9
66	LRRC31	3	1.88	119
67	SPATA24	1	-0.33	75.3
68	SPATA24	2	0.524	92.3
69	SPATA24	3	0.394	89.7
70	NTSR1	1	0.297	87.8
71	NTSR1	2	-0.846	65.1
72	NTSR1	3	-0.411	73.7
73	PIGM	1	0.053	82.9
74	PIGM	2	-0.699	68
75	PIGM	3	-1.84	45.3

9 entries from above, showing only “total luciferase, % of control”:
MEF2A #3 = 84.2
PIP5K1A #1 = 136
PIP5K1A #2 = 97
PIP5K1A #3 = 134
NTSR2 #1 = 99.3
NTSR2 #2 = 98.6
NTSR2 #3 = 84.7
USP9Y #1 = 93.1
USP9Y #2 = 74.6
